Assay results taken from patent US20120020975A1.
These are yes or no findings as the source states them, for the method shown. Binding calls can cover weak binding; strength is not graded here. Blank lines part the entries; values can stand above or below the binder they belong to.

Tests used:
[1] = molecular target: human PCSK9 (proprotein convertase subtilisin kexin type 9), mature form (human); assay: in vitro binding data (Biacore and Kinexa)
[2] = molecular target: human PCSK9 (proprotein convertase subtilisin kexin type 9), mature form (human); assay: western blot, denaturing reducing and non-reducing

binding [1]: binds
B1: 16F12, anti-PCSK9 huIgG4 (antibody, V domains shown)
VH: QVHLVESGGGVVQPGRSLRLSCAASGFTFNSFGMHWVRQAPGKGLEWVALIWSDGSDEYYADSVKGRFTISRDNSKNTLYLQMNSLRAEDTAVYYCARAIAALYYYYGMDVWGQGTTVTVSS
VL: QSVLTQPPSVSAAPGQKVTISCSGSSSNIGNNFVSWYQQLPGTAPKLLIYDYNKRPSGIPDRFSGSKSGTSATLGITGLQTGDEADYYCGTWDSSLSAYVFGTGTRVTVLQ

binding [2]: binds
B2: 13H1 (antibody, V domains shown)
VH: QVQLQQSGPGLVKPSQTLSLTCAISGDSVSSNSAAWNWIRQSPSRGLEWLGRTYYRSKWYKNYSVSVKSRITINPDTSKNQFSLQLNSVTPGDTAVYYCARGGPTAAFDYWGQGTLVTVSS
VL: LSALTQPASVSGSPGQSITISCTGTSSDVGNYNLVSWYQQYSGKAPKLMIYEVSKRPSGVSNRFSGSKSGNTASLTISGLQAEDEADYYCCSYAGSSTLVFGGGTKLTVL

binding [1]: binds
B3: 21B12, anti-PCSK9 huIgG4 (antibody, V domains shown)
VH: QVQLVQSGAEVKKPGASVKVSCKASGYTLTSYGISWVRQAPGQGLEWMGWVSFYNGNTNYAQKLQGRGTMTTDPSTSTAYMELRSLRSDDTAVYYCARGYGMDVWGQGTTVTVSS
VL: QSALTQPASVSGSPGQSITISCTGTSSDVGGYNSVSWYQQHPGKAPKLMIYEVSNRPSGVSNRFSGSKSGNTASLTISGLQAEDEADYYCNSYTSTSMVFGGGTKLTVLQ
